The source of these data is US20250339409A1, “USES OF PAN BET INHIBITORS” (VYNE THERAPEUTICS INC., priority 2021, published 2025).

“And” between values parts separate entries of the source, which are not always exact repeats. Identical values can stand only once. Further values from the same series stand in other lists.

This series has as its system anti collagen antibodies induced arthritis (ACAIA). The series is described as follows: Anti collagen antibodies induced arthritis (ACAIA) in mice, intra-articular treatment: paw thickness, arthritis clinical score, body weight.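 Further: mouse arthritis induced by IV anti-collagen mAb on day 0 plus IP LPS on day 4, with body weight, caliper paw thickness and 0-4 paw score tracked against a day 0 baseline.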

In the case of `C[C@@H]1C[C@H]2[C@@H]3CCC4=CC(=O)C=C[C@]4(C)[C@@]3(F)[C@@H](O)C[C@]2(C)[C@@]1(O)C(=O)CO` [dexamethasone, Dexamethasone, reference compound], the “Percent change of weight per day (individual animal)” value (“Percent change of weight per day” below) runs as follows: (1 mg/kg IA (Group 7), Day 3) 98.51% and 97.52% and 98.56%; (1 mg/kg IA (Group 7), Day 4) 95.0495% and 94.55% and 96.17%; (1 mg/kg IA (Group 7), Day 5) 90.1% and 87.62% and 90.91%; (1 mg/kg IA (Group 7), Day 6) 87.62% and 84.65% and 85.65%; (1 mg/kg IA (Group 7), Day 7) 86.14% and 78.22% and 89.47%; (1 mg/kg IA (Group 7), Day 8) 89.11% and 81.19% and 90.43%. Moreover, the “Percent change of weight per day” value was 90.1% (2×) and 92.82% (1 mg/kg IA (Group 7), Day 10); 96.17% (1 mg/kg IA (Group 7), Day 12).
With `Cn1cc(-c2cccc(O)c2Oc2ccccc2)c2cc[nH]c2c1=O` [BETi1], the “Percent change of weight per day” value by setting is: (0.01 mg/kg IA (Group 5), Baseline) 100%; (0.01 mg/kg IA (Group 5), Day 3) 99.05% and 98.56% and 100.4651% and 97.66% and 99.48% and 100.5348% and 100%; (0.01 mg/kg IA (Group 5), Day 4) 100.4762% and 99.52% and 97.2093% and 100.9346% and 89.69% and 95.19% and 93.33%; (0.01 mg/kg IA (Group 5), Day 5) 92.86% and 89.47% and 88.84% and 94.39% and 85.57% and 89.84% and 87.62%; (0.01 mg/kg IA (Group 5), Day 6) 90.95% and 90.91% and 86.51% and 92.99% and 80.41% and 88.24% and 86.19%; (0.01 mg/kg IA (Group 5), Day 7) 92.38% and 92.3445% and 87.91% and 93.46% and 82.47% and 106.4171% and 88.1%. The “Percent change of weight per day” value was 91.9% and 94.26% and 87.91% and 93.93% and 82.47% and 90.37% and 88.1% (0.01 mg/kg IA (Group 5), Day 8); 93.33% and 93.3% and 85.12% and 91.1215% and 83.51% and 93.05% and 88.57% (0.01 mg/kg IA (Group 5), Day 10); 94.7619% and 95.69% and 88.84% and 93.6% and 87.1134% and 97.3262% and 91.9% (0.01 mg/kg IA (Group 5), Day 12); 100% (0.1 mg/kg IA (Group 4), Baseline); 99.0099% and 100.9524% and 103.0457% and 102.2831% and 101.4778% and 98.6% and 101.6216% (0.1 mg/kg IA (Group 4), Day 3); 99.0099% and 101.4286% and 91.37% and 100% and 100.4926% and 99.53% and 103.2432% (0.1 mg/kg IA (Group 4), Day 4). Moreover, the “Percent change of weight per day” value was 89.6% and 90.48% and 84.26% and 93.61% and 95.5665% and 90.23% and 94.05% (0.1 mg/kg IA (Group 4), Day 5); 85.64% and 89.05% and 83.76% and 89.95% and 91.133% and 87.91% and 92.97% (0.1 mg/kg IA (Group 4), Day 6); 88.12% and 89.52% and 85.28% and 89.0411% and 89.66% and 87.44% and 90.27% (0.1 mg/kg IA (Group 4), Day 7); 86.63% and 87.62% and 84.77% and 89.0411% and 90.64% and 85.5814% and 89.73% (0.1 mg/kg IA (Group 4), Day 8); 90.1% and 90.48% and 85.28% and 88.58% and 87.19% and 88.84% and 90.81% (0.1 mg/kg IA (Group 4), Day 10); 93.07% and 94.7619% and 88.83% and 94.52% and 92.12% and 93.95% and 97.2973% (0.1 mg/kg IA (Group 4), Day 12). For the same compound, the “Percent change of weight per day” value (1 mg/kg IA (Group 3), Day 3) is 100.5076% and 101.4563%; the “Percent change of weight per day” value (1 mg/kg IA (Group 3), Day 4) is 101.0152% and 101.9417%; the “Percent change of weight per day” value (1 mg/kg IA (Group 3), Day 5) is 90.86% and 94.66%; the “Percent change of weight per day” value (1 mg/kg IA (Group 3), Day 6) is 87.31% and 91.26%; the “Percent change of weight per day” value (1 mg/kg IA (Group 3), Day 7) was 89.85% and 93.2%; the “Percent change of weight per day” value (1 mg/kg IA (Group 3), Day 8) is 89.77% and 92.39% and 95.15%. The “Percent change of weight per day” value is, setting by setting: (1 mg/kg IA (Group 3), Day 10) 89.77% and 94.92% and 93.2%; (1 mg/kg IA (Group 3), Day 12) 98.48% and 97.57%.
